# Reference: PubChem BioAssay AID1688 (National Center for Advancing Translational Sciences (NCATS), 2009)
# In all, about 220,000 compounds went through this assay and about 2,400 (1.1%) were called active. The inconclusive results got no clear call from the source; some entries with a clear call stand among them for comparison. Calls follow the shape of the dose curve; as a rule, active = well fitted inhibition curve with a large enough effect; inconclusive = small, poorly fitted or top-dose-only effect, or effect the other way; inactive = no such curve, though single readings can be large or run the other way. A potency beside an inconclusive call is a rough fit, not a confirmed value.
# Test: qHTS Multiplex Assay to Identify Dual Action Probes in a Cell Model of Huntington: Aggregate Formation (GFP); also: nearly all actives have a fitted effect of over 60% in size
# Details: PC12 HttQ103-GFP aggregates, Acumen cytometry, 40 h; activity change, negative = inhibition: at 46.1 µM (top of the series) unless noted
# Procedure, shortened: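 Quantitative HTS on tebufenozide-induced (100 nM) PC12 cells stably expressing polyQ103 Huntingtin exon 1–GFP. Reduction of bright GFP aggregates, detected by laser scanning cytometry after lysis, identified actives across the titration.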
# % is scaled to controls: 0 for no effect and ±100 for the full control effect; potency is read from the fitted curve at half-maximal effect.
SMILES,Potency,"activity change, negative = inhibition"
O=C(NCc1cccnc1)c1ccccc1[N+](=O)[O-],"inconclusive: 35.5 µM [activator, partial curve]",–
O=c1c2cnn(-c3ccc(F)cc3)c2ncn1Cc1ccc(F)cc1,"inconclusive: 0.0316 µM [inhibitor, full curve, poor fit]",–
COc1ccc(N2C(=O)/C(=C\c3ccco3)N=C2SCC(=O)N(C(C)C)C(C)C)cc1Cl,"inconclusive: 2.24 µM [activator, partial curve]",–
O=C(Nc1ccc(F)cc1)Nc1ccccc1F,"inconclusive: 14.1 µM [inhibitor, single point]",–
Cc1cnc(C(=O)Nc2cccc3cccnc23)cn1,active: 0.891 µM,–
Cc1ccc(CC(=O)Nc2cccc([N+](=O)[O-])c2)cc1,–,inactive: -11.1% [at 9.22 µM]
Cc1sc2ncnc(SCC(=O)NCC(C)C)c2c1C,–,inactive: -17.9%
COc1cc(C=O)c(Br)cc1OCC(=O)NCCc1ccccc1,–,inactive: 19.3%
CCOC(=O)/C(=N/Nc1ccccc1)Sc1nnnn1-c1ccc(C)cc1,–,inactive: 27.4%
c1ccc(N(c2ccccc2)c2nc(N3CCCC3)nc(-n3ccnc3)n2)cc1,"inconclusive: 35.5 µM [inhibitor, single point]",–
O=C1c2ccccc2-c2n[nH]c(=O)c3ccc(N4CCCCC4)c1c23,active: 20 µM,–
COC(=O)/C=c1\sc2ncnn2c1=O,"inconclusive: 11.2 µM [activator, single point]",–
COC(=O)Nc1nnc(-c2ccccc2OC)s1,–,inactive: 16.3% [at 9.22 µM]
O=C(N/N=C/c1ccc(Cl)cc1)c1n[nH]c2c1CCCC2,"inconclusive: 0.562 µM [inhibitor, single point]",–
CC(NC(=O)CCc1nnc(Cc2cccc(C(F)(F)F)c2)o1)C1CC1 (stereo unspecified),"inconclusive: 0.891 µM [activator, single point]",–
CCn1c(/C=C/N(C)c2ccccc2)[n+](CC)c2ccc(Cl)cc21,active: 4.47 µM,–
COc1ccc2nc(NC(=O)Nc3cccc4ccccc34)sc2c1,"inconclusive: 35.5 µM [activator, partial curve, poor fit]",–
CN(CC(=O)Nc1ccc(F)c(Cl)c1)S(=O)(=O)c1cccc2nsnc12,"inconclusive: 25.1 µM [inhibitor, single point]",–
O=C(Nc1ccc(Cl)cc1)N(Cc1nc2ccccc2c(=O)[nH]1)Cc1cccs1,"inconclusive: 35.5 µM [inhibitor, single point]",–
O=S(=O)(Cc1ccccc1)N=Nc1c(O)[nH]c2ccc(Br)cc12,–,inactive: -0.669% [at 9.22 µM]
CN1CCN(c2nc3ccccc3nc2C(C#N)C(=O)OC2CCCCC2)CC1 (stereo unspecified),active: 12.6 µM,–
COCCNC(=S)NCCCNc1nc2cc3c(cc2cc1C#N)OCO3,"inconclusive: 31.6 µM [inhibitor, single point]",–

SMILES,Potency,"activity change, negative = inhibition"
Nc1cc(=O)[nH]c(SCC(=O)Nc2cc(S(=O)(=O)N3CCOCC3)ccc2Cl)n1,"inconclusive: 0.112 µM [activator, full curve, poor fit]",–
CC1=NC(Nc2nc(C)c3ccccc3n2)=NC(C)(C)C1,"inconclusive: 10 µM [inhibitor, partial curve]",–
Cc1ccc(CNC(=O)COc2ccccc2-c2ccccc2)cc1,"inconclusive: 11.2 µM [inhibitor, single point]",–
COc1ccc(-n2ncc3c(N4CCCCC4)ncnc32)cc1,"inconclusive: 35.5 µM [inhibitor, single point]",–
Cc1cc(C)c(C#N)c(SCS(=O)c2ccc(C(C)(C)C)cc2)n1 (stereo unspecified),"inconclusive: 1.26 µM [inhibitor, single point]",–
CCCCc1c(C)c(C#N)c2nc3ccccc3n2c1Cl,"inconclusive: 5.62 µM [inhibitor, single point]",–
Cc1cc(C)c2c(n1)nn1c(NCCOCCO)cc(C)nc21,"inconclusive: 0.891 µM [inhibitor, full curve, poor fit]",–
CN(C(=O)c1cccc(N2C(=O)C3CC=CCC3C2=O)c1)C1CCCCC1 (stereo unspecified),"inconclusive: 15.8 µM [inhibitor, single point]",–
O=[N+]([O-])c1cccc(S(=O)(=O)c2cccc([N+](=O)[O-])c2)c1,"inconclusive: 2.51 µM [activator, full curve, poor fit]",–
Oc1ccccc1N=Nc1ccccc1O,"inconclusive: 1.41 µM [inhibitor, full curve, poor fit]",–
CN=C(Nc1cc(Cl)ccc1Cl)SC1CC(=O)N(c2ccc(C(=O)OC)cc2)C1=O (stereo unspecified),"inconclusive: 14.1 µM [activator, single point]",–
Cc1ccc(N=C2NC(=O)/C(=C\c3ccsc3)S2)c(C)c1,–,inactive: -4.56%
CC1CN(c2snnc2C=C2C(=O)OC(C)(C)OC2=O)CC(C)O1 (stereo unspecified),–,inactive: -14.3%
O=C(Nc1ccc(Cl)c(-c2nc3ccccc3[nH]2)c1)c1ccc2c(c1)OCO2,"inconclusive: 35.5 µM [inhibitor, single point]",–
CCc1nc(SCC(=O)NNC(=O)C(C)C)c2ccccc2n1,"inconclusive: 35.5 µM [activator, single point]",–
Cc1cc(C(=O)N/N=C/c2cc([N+](=O)[O-])ccc2O)c2ccccc2n1,active: 7.08 µM,–
CCN1CCN(c2cc(C)c3cc(NC(=S)N4CCN(c5ccccc5F)CC4)ccc3n2)CC1,"inconclusive: 35.5 µM [inhibitor, single point]",–
COc1ccccc1NC(=S)N(Cc1ccco1)Cc1cc2ccc(C)c(C)c2[nH]c1=O,"inconclusive: 10 µM [activator, partial curve]",–
Cc1[nH]n(-c2ccccc2)c(=S)c1C=Nc1ccc([N+](=O)[O-])cc1,–,inactive: 26.5%
COc1ccc(C(=O)/C=C/C(=O)N(CC(=O)NC2CCCCC2)Cc2ccccc2)c(O)c1,"inconclusive: 5.62 µM [inhibitor, single point]",–
CC(C)CC(=O)NC(Nc1ccc([N+](=O)[O-])cc1)C(Cl)(Cl)Cl (stereo unspecified),"inconclusive: 25.1 µM [inhibitor, single point]",–
Cc1ccc2c(c1)[C@@H]1CN(C)CC[C@@H]1N2S(=O)(=O)c1ccc([N+](=O)[O-])cc1,"inconclusive: 31.6 µM [inhibitor, single point]",–

SMILES,Potency,"activity change, negative = inhibition"
CC(=O)Nc1ccccc1OCC(=O)c1cc(C)n(Cc2cccs2)c1C,"inconclusive: 1.12 µM [inhibitor, full curve]",–
COc1cc(-n2c(-c3ccccc3)n[nH]c2=S)c(OC)cc1Cl,"inconclusive: 35.5 µM [inhibitor, single point]",–
Cc1cccc(NC(=S)NNC(=O)c2csc3c2CCC(C)C3)c1 (stereo unspecified),"inconclusive: 11.2 µM [inhibitor, single point]",–
COC(=O)c1sc(NC(=O)CSc2nnnn2-c2cccc(OC)c2)nc1C,"inconclusive: 11.2 µM [inhibitor, single point]",–
CN(CC(=O)Nc1ccc(S(=O)(=O)N2CCCC2)cc1)Cc1c(F)cccc1Cl,"inconclusive: 35.5 µM [inhibitor, single point]",–
O=C1c2ccccc2C2=Nc3ccccc3SC(c3cccc(F)c3)C12 (stereo unspecified),"inconclusive: 35.5 µM [inhibitor, single point]",–
Cc1ccc(NC(=O)/C(CN(C)C)=N\O)cc1,"inconclusive: 35.5 µM [activator, single point]",–
O=C1N/C(=N/NC(=O)c2cccc3ccccc23)S/C1=C\c1ccccc1OCc1ccccc1,"inconclusive: 10 µM [inhibitor, partial curve]",–
COc1ccc(-c2nnc(OCc3ccccc3)c3ccccc23)cc1,"inconclusive: 3.98 µM [inhibitor, full curve, poor fit]",–
CN(C)CCn1c2ccccc2c2nc3ccc([N+](=O)[O-])cc3cc21,"inconclusive: 6.31 µM [inhibitor, single point]",–
CCOC(=O)c1ccc(NC(=S)Nc2ccccn2)cc1,"inconclusive: 0.112 µM [inhibitor, full curve, poor fit]",–
Cc1ccc(C2=NN(S(=O)(=O)c3ccccc3)C(c3ccccc3O)C2)cc1 (stereo unspecified),"inconclusive: 35.5 µM [inhibitor, single point]",–
Cc1cc(-n2c(C)cc(C(=O)CSc3nnnn3-c3ccccc3)c2C)no1,"inconclusive: 20 µM [inhibitor, partial curve, poor fit]",–
CC1=Nc2cc(C(=O)O)ccc2Sc2ccc(C)cc21,–,inactive: -1.91%
O=C(Nc1ccc(-c2nnc3n2CCCCC3)cc1)c1ccco1,–,inactive: -5.46%
Cc1sc2nc(CSc3ccccc3)nc(NCCN(C)C)c2c1C,"inconclusive: 1 µM [inhibitor, partial curve]",–
COCCn1c(C)cc(C(=O)CSc2nc3ccccc3o2)c1C,"inconclusive: 22.4 µM [inhibitor, single point]",–
Cc1ccc2nc(NC(=O)CCNS(=O)(=O)c3ccc(Br)s3)sc2c1,"inconclusive: 25.1 µM [inhibitor, single point]",–
CC(=O)[C@@]1(O)CC[C@H]2[C@@H]3C[C@H](C)C4=CC(=O)C=C[C@]4(C)[C@@]3(F)[C@@H](O)C[C@@]21C,"inconclusive: 6.31 µM [activator, single point]",–
O=C1/C(=C\c2cccnc2)CN(Cc2ccccc2)C/C1=C\c1cccnc1,"inconclusive: 35.5 µM [inhibitor, single point]",–
COc1cc([N+](=O)[O-])ccc1NC(=O)NCc1ccco1,–,inactive: 7.58%
COc1ccccc1OCCn1cc(C(=O)c2ccco2)c2ccccc21,"inconclusive: 35.5 µM [inhibitor, single point]",–

# Of the compounds above, these have a cyano group:
SMILES,Potency,"activity change, negative = inhibition"
CN1CCN(c2nc3ccccc3nc2C(C#N)C(=O)OC2CCCCC2)CC1 (stereo unspecified),active: 12.6 µM,–
COCCNC(=S)NCCCNc1nc2cc3c(cc2cc1C#N)OCO3,"inconclusive: 31.6 µM [inhibitor, single point]",–
Cc1cc(C)c(C#N)c(SCS(=O)c2ccc(C(C)(C)C)cc2)n1 (stereo unspecified),"inconclusive: 1.26 µM [inhibitor, single point]",–
CCCCc1c(C)c(C#N)c2nc3ccccc3n2c1Cl,"inconclusive: 5.62 µM [inhibitor, single point]",–
